Results are given in words; binding and its absence hold for the method and conditions named. Some binding calls cover weakened binding; strength is not graded here. Where a sequence is shown, tags or fusion partners need not be part of it.
Key:
[1] = target: T1, PHO36MH (PHO36 with c-myc epitope and hexa-His tag fused in-frame at the C-terminus) (Saccharomyces cerevisiae) (UniProt Q12442); test: osmotin-Sepharose 4B pull-down and 35S-osmotin binding to spheroplasts
T1 sequence (looked up): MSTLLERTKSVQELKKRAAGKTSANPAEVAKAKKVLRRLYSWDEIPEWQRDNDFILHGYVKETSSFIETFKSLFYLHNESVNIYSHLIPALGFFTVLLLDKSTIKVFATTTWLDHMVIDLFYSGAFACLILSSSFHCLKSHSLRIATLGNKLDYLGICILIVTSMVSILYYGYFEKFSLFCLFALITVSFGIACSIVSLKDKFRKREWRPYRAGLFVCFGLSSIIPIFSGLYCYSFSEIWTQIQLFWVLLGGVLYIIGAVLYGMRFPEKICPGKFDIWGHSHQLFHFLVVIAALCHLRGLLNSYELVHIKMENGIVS

[2] = target: T1, PHO36MH (PHO36 with c-myc epitope and hexa-His tag fused in-frame at the C-terminus) (Saccharomyces cerevisiae); test: pull-down of the PHO36MH membrane fraction with osmotin-Sepharose 4B, anti-myc immunoblot
[3] = target: T1, PHO36MH (PHO36 with c-myc epitope and hexa-His tag fused in-frame at the C-terminus) (Saccharomyces cerevisiae); test: 35S-osmotin binding to yeast spheroplasts, scintillation counting
[4] = target: T1, PHO36MH (PHO36 with c-myc epitope and hexa-His tag fused in-frame at the C-terminus) (Saccharomyces cerevisiae); test: osmotin-Sepharose 4B pull-down (summary of the result)

Measured: binding

B1: osmotin (ligand)
chain: ATIEVRNNCPYTVWAASTPIGGGRRLDRGQTWVINAPRGTKMARVWGRTNCNFNAAGRGTCQTGDCGGVLQCTGWGKPPNTLAEYALDQFSGLDFWDISLVDGFNIPMTFAPTNPSGGKCHAIHCTANINGECPRELRVPGGCNNPCTTFGGQQYCCTQGPCGPTFFSKFFKQRCPDAYSYPQDDPTSTFTCPGGSTNYRVIFCPNGQAHPNFPLEMPGSDEVAK
notes: Purified osmotin (26 kDa globular protein, mostly a monomer in solution); also called tobacco PR-5 protein; 35S-osmotin
binds: all assays above

From patent US20060069024A1 (PURDUE RESEARCH FOUNDATION, published 2006)
